Laboratory results published in PMC3691573.
Results are given in words; binding and its absence hold for the method and conditions named. Binding seen in cells or lysates may run through a third protein. Some entries that bind do so weakly or less than the wild type.

Chains of the proteins cited; added tags and fusions are not shown.
UniProt Q9WVH4: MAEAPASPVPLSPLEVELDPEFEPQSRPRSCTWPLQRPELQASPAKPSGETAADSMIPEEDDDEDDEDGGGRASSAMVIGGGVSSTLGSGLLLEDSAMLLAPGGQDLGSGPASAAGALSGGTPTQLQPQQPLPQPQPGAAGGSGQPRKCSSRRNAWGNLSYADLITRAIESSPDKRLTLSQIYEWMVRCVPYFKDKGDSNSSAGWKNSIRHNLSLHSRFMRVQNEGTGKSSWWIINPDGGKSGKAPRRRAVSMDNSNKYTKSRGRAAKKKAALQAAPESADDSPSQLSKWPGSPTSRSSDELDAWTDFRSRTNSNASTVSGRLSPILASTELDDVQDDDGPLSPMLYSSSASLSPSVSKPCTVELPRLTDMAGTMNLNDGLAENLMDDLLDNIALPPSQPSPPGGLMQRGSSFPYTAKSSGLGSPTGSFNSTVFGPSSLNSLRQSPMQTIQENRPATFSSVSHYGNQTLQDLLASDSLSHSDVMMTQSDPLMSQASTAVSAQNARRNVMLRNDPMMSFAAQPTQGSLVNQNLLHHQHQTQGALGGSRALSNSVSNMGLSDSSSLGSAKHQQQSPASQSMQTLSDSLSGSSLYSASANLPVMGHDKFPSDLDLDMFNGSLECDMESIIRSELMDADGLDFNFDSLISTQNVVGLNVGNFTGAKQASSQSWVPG
UniProt P28652: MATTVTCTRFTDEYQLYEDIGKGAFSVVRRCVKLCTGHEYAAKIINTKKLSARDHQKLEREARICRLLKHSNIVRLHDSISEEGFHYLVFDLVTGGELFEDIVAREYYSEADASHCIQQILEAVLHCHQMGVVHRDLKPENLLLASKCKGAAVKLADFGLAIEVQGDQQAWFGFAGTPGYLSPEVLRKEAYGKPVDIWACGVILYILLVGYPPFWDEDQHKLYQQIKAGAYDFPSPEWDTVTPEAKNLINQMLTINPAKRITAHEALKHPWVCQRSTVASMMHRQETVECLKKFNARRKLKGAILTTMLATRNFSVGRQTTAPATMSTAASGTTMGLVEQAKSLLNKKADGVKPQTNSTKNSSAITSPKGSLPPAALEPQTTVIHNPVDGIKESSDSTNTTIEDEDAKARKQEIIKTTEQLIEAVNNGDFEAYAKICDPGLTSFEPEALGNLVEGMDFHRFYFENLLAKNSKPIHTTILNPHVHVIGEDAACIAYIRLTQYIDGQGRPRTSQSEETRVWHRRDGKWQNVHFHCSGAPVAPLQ
UniProt P11798: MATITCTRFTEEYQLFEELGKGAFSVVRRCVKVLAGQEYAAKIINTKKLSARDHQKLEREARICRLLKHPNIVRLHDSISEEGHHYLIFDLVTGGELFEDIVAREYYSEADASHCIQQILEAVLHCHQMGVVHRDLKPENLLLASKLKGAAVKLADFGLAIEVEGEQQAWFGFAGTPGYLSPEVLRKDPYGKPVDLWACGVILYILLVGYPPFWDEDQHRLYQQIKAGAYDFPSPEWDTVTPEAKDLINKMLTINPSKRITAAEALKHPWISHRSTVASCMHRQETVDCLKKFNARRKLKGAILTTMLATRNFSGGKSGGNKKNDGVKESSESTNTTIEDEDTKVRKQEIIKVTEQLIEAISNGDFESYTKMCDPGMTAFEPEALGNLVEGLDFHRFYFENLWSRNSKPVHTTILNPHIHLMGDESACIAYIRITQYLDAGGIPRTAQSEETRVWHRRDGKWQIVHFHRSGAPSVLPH

Target: FLAG-tagged mouse FOXO3 (mouse) (UniProt Q9WVH4)
Test: co-IP; anti-FLAG IP of FLAG-FOXO3 from transfected HEK293T cells; performed as described (Xie et al., 2012)

| binding | Substance |
| --- | --- |
| binds | GFP-tagged mouse CAMKII beta (from UniProt P28652 1-542) (enzyme) |
| binds | GFP-tagged mouse CAMKII alpha (from UniProt P11798 1-478) (enzyme) |
